Entries after “also recorded” stand apart in the source; their conditions may differ.
Tested on: hFL-HCC cells of TU-2010
Experiment: Cell proliferation assay (WST-1) on monolayer cultures of hFL-HCC cells
Assay type: cell-based, human
Settings: 2 μM and 10 μM, drug added for 3 days
Description: For cell proliferation assays, 3×10^4 hFL-HCC cells of TU-2010 were depleted of host mesenchymal cells by magnetic sorting of xenotransplantable tumor cell suspension and then were seeded into each well of a 96-well plate and cultured overnight with Kubota's Medium+5% FBS. After 16-20 hours, the specific hedgehog inhibitor Vismodegib (GDC-0449) (Selleckchem Bio, Houston, TX) or the histone deacetylase (HDAC) inhibitors, suberic bis-hydroxamic acid (SBHA) or suberoylanilide hydroxamic acid (SAHA) (SIGMA, St. Louis, MO) were added for 3 days. Cell proliferation was evaluated using the Cell Proliferation Reagent WST-1 (Roche Applied Science, Mannheim, Germany). After incubation at 37° C. for 2 hours, the absorbance at 450 nm was measured.

`O=C(CCCCCCC(=O)Nc1ccccc1)NO` [SAHA, suberoylanilide hydroxamic acid] was tested, and the “inhibitory effect on hFL-HCC cell survival and growth” value was “strongly inhibited; also recorded: strong inhibitory effects”.

Reference: patent US11932877B2, “Human fibrolamellar hepatocellular carcinomas (hFL-HCCs)” (priority 2015, dated 2024)
